Measured values taken from the supplement of paper PMC6143611.
Structures can show the parent of a compound that is named as a salt. ± gives the uncertainty stated by the source. The list shows a part of the results. Baselines shift from plate to plate; read single values as rough.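 Larvae carried a heat-shock-induced fluorescent stripe in rod outer segments, set at 6 dpf; the shedding distance runs from this stripe to the outer segment tip, measured in confocal stacks, about three fish per compound. The controls got 0.2% DMSO vehicle, and the paper flagged compounds with at least a 20% change against the same-week control and p < 0.001 (Dunnett test on mixed-effects models).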

Assays:
[1] = system: Danio rerio larva rod photoreceptor outer segment; assay: rod outer segment growth distance Dg, difference from same-week DMSO control mean; higher = more outer segment growth; details: 20 µM; treatment time: 4 days (6-10 dpf)
[2] = system: Danio rerio larva rod photoreceptor outer segment; assay: rod outer segment shedding distance Ds, difference from same-week DMSO control mean; higher = less outer segment shedding; details: 20 µM; treatment time: 4 days (6-10 dpf)

| SMILES | rod outer segment growth distance Dg [1] [um] | rod outer segment shedding distance Ds [2] [um] |
| --- | --- | --- |
| O=c1[nH]c(=O)n([C@H]2C[C@H](O)[C@@H](CO)O2)cc1C(F)(F)F [Trifluridine] | -0.72 ± 0.21 | -0.19 ± 0.13 |
| CC(C)OC(=O)OCOP(=O)(CO[C@H](C)Cn1cnc2c(N)ncnc21)OCOC(=O)OC(C)C [Tenofovir Disoproxil Fumarate] | 0.1 ± 0.19 | -0.04 ± 0.3 |
| CNS(=O)(=O)CCc1ccc2[nH]cc(C3CCN(C)CC3)c2c1 [Naratriptan] | -0.5 ± 0.16 | -0.49 ± 0.18 |
| O=C(/C=C/C=C/c1ccc2c(c1)OCO2)N1CCCCC1 [Piperine] | -2.98 ± 1.1 | -3.8 ± 1.1 |
| CN(C)Cc1ccc(-c2nc3cccc4c3n2CCNC4=O)cc1 | -0.26 ± 0.34 | -0.09 ± 0.26 |
| CC(C)(C)C(=O)OCOP(=O)(COCCn1cnc2c(N)ncnc21)OCOC(=O)C(C)(C)C [Adefovir Dipivoxil] | 0.74 ± 0.28 | -0.61 ± 0.15 |
| CO[C@@H](C(=O)N1Cc2[nH]nc(NC(=O)c3ccc(N4CCN(C)CC4)cc3)c2C1)c1ccccc1 | -0.41 ± 0.15 | -0.1 ± 0.21 |
| COC1CCN(C(=O)c2cc(Cc3n[nH]c(=O)c4ccccc34)ccc2F)CC1 | -0.81 ± 0.18 | 0.19 ± 0.12 |
| Cc1ccnc2c1NC(=O)c1cccnc1N2C1CC1 [Nevirapine] | -0.63 ± 0.22 | -0.08 ± 0.17 |
| CC1=NN(c2ccccc2)C(=O)C1 [Edaravone] | 0.47 ± 0.17 | -0.53 ± 0.19 |
| C=C1C(=O)[C@]23[C@H](O)[C@H]1CC[C@H]2[C@@]12CO[C@]3(O)[C@@H](O)[C@@H]1C(C)(C)CC[C@@H]2O [Oridonin] | -2.57 ± 1.1 | -3.47 ± 1.1 |
| CNC(=O)[C@H](Cc1ccccc1)NC(=O)[C@H](CC(C)C)[C@H](CSc1cccs1)C(=O)NO [Batimastat (BB-94)] | -0.99 ± 0.2 | -1.11 ± 0.28 |
| CCCC(=O)Nc1cccc(NC(=O)c2ccccc2Br)c1 | -1.46 ± 0.23 | -0.54 ± 0.19 |
| CO[C@@H]1[C@@H](OC(N)=O)[C@@H](O)[C@H](Oc2ccc3c(O)c(NC(=O)c4ccc(O)c(CC=C(C)C)c4)c(=O)oc3c2C)OC1(C)C [Novobiocin Sodium] | 0.63 ± 0.23 | 0.92 ± 0.28 |
| COc1cccc2c1C(=O)c1c(O)c3c(c(O)c1C2=O)C[C@@](O)(C(=O)CO)C[C@@H]3O[C@H]1C[C@H](N)[C@@H](O)[C@H](C)O1 [Epirubicin HCl] | -0.59 ± 0.19 | -0.6 ± 0.21 |
| CC(=O)OCC(CCn1cnc2cnc(N)nc21)COC(C)=O [Famciclovir] | 0.48 ± 0.27 | 0.36 ± 0.29 |
| CC(C)n1nc(-c2cc3cc(O)ccc3[nH]2)c2c(N)ncnc21 | 0.16 ± 0.23 | -0.8 ± 0.34 |

Arranged by length of the SMILES (largest number first): ten of the compounds above.

| SMILES | rod outer segment growth distance Dg [1] [um] | rod outer segment shedding distance Ds [2] [um] |
| --- | --- | --- |
| CO[C@@H]1[C@@H](OC(N)=O)[C@@H](O)[C@H](Oc2ccc3c(O)c(NC(=O)c4ccc(O)c(CC=C(C)C)c4)c(=O)oc3c2C)OC1(C)C [Novobiocin Sodium] | 0.63 ± 0.23 | 0.92 ± 0.28 |
| COc1cccc2c1C(=O)c1c(O)c3c(c(O)c1C2=O)C[C@@](O)(C(=O)CO)C[C@@H]3O[C@H]1C[C@H](N)[C@@H](O)[C@H](C)O1 [Epirubicin HCl] | -0.59 ± 0.19 | -0.6 ± 0.21 |
| C=C1C(=O)[C@]23[C@H](O)[C@H]1CC[C@H]2[C@@]12CO[C@]3(O)[C@@H](O)[C@@H]1C(C)(C)CC[C@@H]2O [Oridonin] | -2.57 ± 1.1 | -3.47 ± 1.1 |
| CO[C@@H](C(=O)N1Cc2[nH]nc(NC(=O)c3ccc(N4CCN(C)CC4)cc3)c2C1)c1ccccc1 | -0.41 ± 0.15 | -0.1 ± 0.21 |
| CNC(=O)[C@H](Cc1ccccc1)NC(=O)[C@H](CC(C)C)[C@H](CSc1cccs1)C(=O)NO [Batimastat (BB-94)] | -0.99 ± 0.2 | -1.11 ± 0.28 |
| CC(C)(C)C(=O)OCOP(=O)(COCCn1cnc2c(N)ncnc21)OCOC(=O)C(C)(C)C [Adefovir Dipivoxil] | 0.74 ± 0.28 | -0.61 ± 0.15 |
| CC(C)n1nc(-c2cc3cc(O)ccc3[nH]2)c2c(N)ncnc21 | 0.16 ± 0.23 | -0.8 ± 0.34 |
| CN(C)Cc1ccc(-c2nc3cccc4c3n2CCNC4=O)cc1 | -0.26 ± 0.34 | -0.09 ± 0.26 |
| O=C(/C=C/C=C/c1ccc2c(c1)OCO2)N1CCCCC1 [Piperine] | -2.98 ± 1.1 | -3.8 ± 1.1 |
| CCCC(=O)Nc1cccc(NC(=O)c2ccccc2Br)c1 | -1.46 ± 0.23 | -0.54 ± 0.19 |

Following part

| SMILES | rod outer segment growth distance Dg [1] [um] | rod outer segment shedding distance Ds [2] [um] |
| --- | --- | --- |
| Cc1ccc(NC(=O)c2cccc(N(C)C)c2)cc1NC(=O)c1ccc(O)cc1 | -0.7 ± 0.15 | -0.48 ± 0.11 |
| C[C@H](Cn1cnc2c(N)ncnc21)OCP(=O)(O)O [Tenofovir] | 1.21 ± 0.19 | 0.48 ± 0.22 |
| C[C@@H]1[C@H](O)[C@@H](C)/C=C/C=C/C=C/C=C/C=C/C=C/C=C/[C@H](O[C@@H]2O[C@H](C)[C@@H](O)[C@H](N)[C@@H]2O)C[C@@H]2O[C@](O)(C[C@@H](O)C[C@@H](O)[C@H](O)CC[C@@H](O)C[C@@H](O)CC(=O)O[C@H]1C)C[C@H](O)[C@H]2C(=O)O [Amphotericin B] | -0.98 ± 0.24 | 0.18 ± 0.2 |
| O=C(O)c1ccc(-n2nc(-c3ccccc3O)nc2-c2ccccc2O)cc1 [Deferasirox] | 0.32 ± 0.29 | 0.34 ± 0.14 |
| Nc1cccc(-c2cc3c(Oc4cccc(O)c4)ncnc3[nH]2)c1 | 0.65 ± 0.18 | -0.42 ± 0.16 |
| Cn1cc(-c2cnn3c(N)c(Br)c([C@@H]4CCCNC4)nc23)cn1 | -0.34 ± 0.16 | -0.44 ± 0.11 |
| C[S+]([O-])c1ccc(-c2nc(-c3ccc(F)cc3)c(-c3ccncc3)[nH]2)cc1 (stereo unspecified) | -0.96 ± 0.16 | 0.48 ± 0.25 |
| CC(C(=O)O)c1ccc(-c2ccccc2)c(F)c1 (stereo unspecified) [Flurbiprofen] | 1.02 ± 0.18 | 0.41 ± 0.17 |
| COc1ccc(/C=C/C(=O)Nc2ccccc2C(=O)O)cc1OC [Tranilast] | -0.03 ± 0.26 | -0.17 ± 0.23 |
| Nc1ccc2ncnc(NCCc3ccc(Oc4ccccc4)cc3)c2c1 | -0.4 ± 0.17 | -0.61 ± 0.14 |
| CCCc1cc(=O)[nH]c(=S)[nH]1 [Propylthiouracil] | -0.05 ± 0.26 | -0.65 ± 0.29 |
| NNc1nncc2ccccc12 [Hydralazine HCl] | -0.38 ± 0.27 | -0.55 ± 0.17 |
| Cn1cnc(=N)c2[nH]cnc21 [3-Methyladenine] | -0.42 ± 0.14 | -0.03 ± 0.13 |
| Cn1nnc2c(C(N)=O)ncn2c1=O [Temozolomide] | 0.11 ± 0.26 | 0.15 ± 0.33 |
| CN(C)CCc1c[nH]c2ccc(Cn3cncn3)cc12 [Rizatriptan Benzoate] | 0.32 ± 0.15 | 0.26 ± 0.14 |
| COc1cc([C@@H]2c3cc4c(cc3[C@@H](O[C@@H]3O[C@@H]5CO[C@@H](c6cccs6)O[C@H]5[C@H](O)[C@H]3O)[C@H]3COC(=O)[C@H]23)OCO4)cc(OC)c1O [Teniposide] | -0.95 ± 0.21 | -0.29 ± 0.13 |
